Measured values as given in PMC13036035.
These are yes or no findings as the source states them, for the method shown. Binding seen in cells or lysates may run through a third protein. Some results given as binding are weak or reduced against the parent protein; the word gives no strength.

The chains behind the UniProt entries cited, without tags or fusion partners.
UniProt P49588: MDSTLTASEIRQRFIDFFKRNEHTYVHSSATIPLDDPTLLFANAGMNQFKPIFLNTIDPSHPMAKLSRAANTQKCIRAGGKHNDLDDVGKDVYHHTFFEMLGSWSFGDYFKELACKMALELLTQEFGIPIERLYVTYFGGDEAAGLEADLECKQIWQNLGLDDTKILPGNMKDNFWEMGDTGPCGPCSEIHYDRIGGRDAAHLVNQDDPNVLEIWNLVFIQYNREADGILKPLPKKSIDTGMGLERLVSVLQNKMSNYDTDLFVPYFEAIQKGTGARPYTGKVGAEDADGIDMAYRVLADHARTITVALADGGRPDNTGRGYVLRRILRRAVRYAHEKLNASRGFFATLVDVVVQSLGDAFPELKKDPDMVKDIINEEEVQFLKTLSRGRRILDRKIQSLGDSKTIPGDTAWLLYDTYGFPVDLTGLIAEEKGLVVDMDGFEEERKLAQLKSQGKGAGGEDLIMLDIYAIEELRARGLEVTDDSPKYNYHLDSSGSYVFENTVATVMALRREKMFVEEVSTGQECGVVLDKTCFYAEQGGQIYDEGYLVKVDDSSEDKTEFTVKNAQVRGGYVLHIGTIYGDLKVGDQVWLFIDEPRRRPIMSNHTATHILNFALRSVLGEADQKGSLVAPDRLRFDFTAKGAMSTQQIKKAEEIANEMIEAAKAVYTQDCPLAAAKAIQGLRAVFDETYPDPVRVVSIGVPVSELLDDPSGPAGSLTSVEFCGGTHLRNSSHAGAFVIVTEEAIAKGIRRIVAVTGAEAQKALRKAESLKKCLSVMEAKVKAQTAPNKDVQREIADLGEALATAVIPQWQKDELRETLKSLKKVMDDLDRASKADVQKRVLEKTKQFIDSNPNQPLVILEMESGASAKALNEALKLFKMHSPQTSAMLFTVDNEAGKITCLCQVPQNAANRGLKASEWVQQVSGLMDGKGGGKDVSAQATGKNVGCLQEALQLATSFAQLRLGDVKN
UniProt P42224: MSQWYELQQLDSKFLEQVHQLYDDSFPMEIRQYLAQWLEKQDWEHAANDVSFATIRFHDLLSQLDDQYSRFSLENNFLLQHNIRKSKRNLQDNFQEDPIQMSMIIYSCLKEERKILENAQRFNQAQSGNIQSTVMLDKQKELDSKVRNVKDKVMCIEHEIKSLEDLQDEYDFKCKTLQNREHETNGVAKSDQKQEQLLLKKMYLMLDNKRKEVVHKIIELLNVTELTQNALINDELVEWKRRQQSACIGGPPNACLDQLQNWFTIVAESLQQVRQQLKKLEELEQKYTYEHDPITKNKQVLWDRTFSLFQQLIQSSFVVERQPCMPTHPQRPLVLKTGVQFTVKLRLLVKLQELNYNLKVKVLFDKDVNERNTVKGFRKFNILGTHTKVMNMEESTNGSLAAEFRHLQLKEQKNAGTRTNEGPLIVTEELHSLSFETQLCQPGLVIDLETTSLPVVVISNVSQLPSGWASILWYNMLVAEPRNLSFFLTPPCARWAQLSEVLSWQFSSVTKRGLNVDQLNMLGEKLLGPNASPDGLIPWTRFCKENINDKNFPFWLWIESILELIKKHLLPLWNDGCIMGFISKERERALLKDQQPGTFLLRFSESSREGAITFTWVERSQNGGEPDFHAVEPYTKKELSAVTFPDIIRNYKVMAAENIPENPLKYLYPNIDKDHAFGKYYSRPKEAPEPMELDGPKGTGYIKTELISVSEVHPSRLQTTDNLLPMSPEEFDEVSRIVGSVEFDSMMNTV

Biological target: Alanyl-tRNA synthetase 1 (AARS1) (human (endogenous in HGECs and HK-2 cells)) (UniProt P49588)
Assay: co-IP; co-immunoprecipitation in HGECs and HK-2 cells; performed as described previously (ref. 19)

- binding: binds
Substance: signal transducer and activator of transcription 1 (STAT1) (from UniProt P42224 1-750)
